PubChem BioAssay AID504786 | Drosophila RNAi Screening Center, 2011

Assay: 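Positive regulators of HIF-driven reporter output in Drosophila cells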 (primary screen)
Cells: Drosophila S2 cells with a stable HIF luciferase reporter
Reagents: long dsRNA against Drosophila genes, about 0.2 µg dsRNA per well of a 384-well plate
Duration: three days of knock-down, then 20 h of DFO before reading
Challenge: desferrioxamine (DFO) at 100 µM, an iron chelator that mimics hypoxia, for 20 h
Measured: 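HIF reporter luminescence in cells given 100 µM DFO for 20 h, using the mouse ldh-a hypoxia-response element, scored as per-plate z-scores; higher means greater loss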
Reading the numbers: z-score: higher = stronger loss of HIF reporter signal
In all, the deposit lists about 21,000 reagents; shown is a random part of those with a known target gene and a result. 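Primary screen; positive scores mean lost reporter signal, so the sign may be inverted from the usual convention.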 A plus sign joins genes that one reagent is predicted to hit. Further read-outs or replicates are left out here.

target gene | dsRNA | z-score, replicate 1
CG1812 (GeneID 33049) | DRSC20557 | -0.3
CG17782 (GeneID 42912) | DRSC15267 | -0.4
CG13482 (GeneID 39577) | DRSC10024 | -0.3
l(2)SH0834 (GeneID 34386) | DRSC02854 | 0
CG7295 (GeneID 33365) | DRSC00699 | -0.2
Sfp93F (GeneID 8673963) | DRSC13505 | -0.1
U4-U6-60K (GeneID 39955) | DRSC10624 | 0.3
Ziz (GeneID 34030) | DRSC02506 | -0.3
Ziz (GeneID 34030) | DRSC02976 | -0.2
CG1722 (GeneID 33101) | DRSC20547 | -0.3
Spn27A (GeneID 45815) | DRSC03608 | -0.2
Snx6 (GeneID 34126) | DRSC03081 | -0.1
shop (GeneID 32878) | DRSC20030 | -0.3
kirre (GeneID 31292) | DRSC18785 | 0
eIF4E3 (GeneID 38923) | DRSC10952 | -0.1
CG14736 (GeneID 41466) | DRSC14956 | -0.3
GstE14 (GeneID 36467) | DRSC06881 | -0.4
Cyp28c1 (GeneID 32138) | DRSC20236 | -0.1
CG4270 (GeneID 33408) | DRSC00648 | -0.3
Cont (GeneID 40553) | DRSC12149 | -0.3
Had1 (GeneID 32592) | DRSC20216 | -0.3
CG42680 (GeneID 10178899) | DRSC01399 | 0.1
CG8517 (GeneID 37268) | DRSC07205 | -0.1
unc-4 (GeneID 32757) | DRSC20381 | -0.3
CG1440 (GeneID 31776) | DRSC17915 | -0.2
mRpL2 (GeneID 39253) | DRSC10896 | 0.9
CG3598 (GeneID 31283) | DRSC18471 | -0.3
CG33267 (GeneID 2768969) | DRSC09120 | -0.2
CG6345 (GeneID 41271) | DRSC16024 | -0.4
CG10650 (GeneID 35162) | DRSC02085 | -0.3
CG7183 (GeneID 42181) | DRSC16210 | -0.3
Miox (GeneID 39391) | DRSC10747 | -0.2
CG4702 (GeneID 41472) | DRSC15626 | -0.3
CG34447 (GeneID 5740813) | DRSC00741 | -0.1
CG32706 + CG6999 | DRSC18412 | -0.2
CG7296 (GeneID 34469) | DRSC03042 | -0.4
Taf7 (GeneID 40934) | DRSC15445 | 0.9
Papst2 (GeneID 39914) | DRSC10924 | -0.3
Gk2 (GeneID 38221) | DRSC08610 | -0.2
CG18586 (GeneID 38659) | DRSC10325 | -0.4
CG34175 (GeneID 5740264) | DRSC00424 | 0.1
MFS14 (GeneID 46085) | DRSC06524 | -0.2
CG30031 + deltaTry + gammaTry | DRSC07622 | -0.2
Ir48c (GeneID 36257) | DRSC06154 | -0.6
CG14244 (GeneID 50080) | DRSC14739 | -0.6
CG12375 (GeneID 34106) | DRSC02163 | -0.2
CG9717 (GeneID 43636) | DRSC16543 | -0.2
CG13097 (GeneID 34184) | DRSC02199 | -0.2
CG7742 (GeneID 33750) | DRSC03066 | -0.4
rost (GeneID 34222) | DRSC03603 | -0.3
Arp3 (GeneID 38898) | DRSC09669 | 0.9
CG9663 (GeneID 33541) | DRSC00724 | -0.2
Polr3E (GeneID 40325) | DRSC11880 | 0.4
ana2 (GeneID 35878) | DRSC05952 | -0.2
CG31867 (GeneID 261614) | DRSC03338 | -0.2
Sec22 (GeneID 31030) | DRSC18538 | -0.3
CG6733 (GeneID 42731) | DRSC16103 | -0.5
CG1582 (GeneID 32021) | DRSC19732 | -0.2
Alp1 (GeneID 40372) | DRSC11781 | -0.1
exu (GeneID 37345) | DRSC07615 | -0.3
CG13324 (GeneID 36434) | DRSC06361 | 0.5
IFT54 (GeneID 41739) | DRSC15469 | -0.4
gammaTub23C (GeneID 33501) | DRSC00820 | -0.2
CG32189 (GeneID 317902) | DRSC09511 | -0.2
EbpIII (GeneID 49821) | DRSC04638 | -0.1
CG14321 (GeneID 42134) | DRSC14800 | 0
Fdx1 (GeneID 39070) | DRSC11167 | 0.1
ND4 (retired record) (GeneID 192476) | DRSC21269 | -0.3
fln (GeneID 40185) | DRSC11346 | -0.3
Tao (GeneID 32948) | DRSC19573 | -0.2
Tao (GeneID 32948) | DRSC19574 | -0.5
CG9029 (GeneID 33815) | DRSC03129 | -0.3
CG12902 (GeneID 36092) | DRSC06217 | -0.3
Polr3I (GeneID 32678) | DRSC19922 | 0.2
CR31292 (GeneID 10178952) | DRSC13120 | 0.2
Or59b (GeneID 37715) | DRSC04632 | -0.3
dnd (GeneID 42580) | DRSC16064 | 0.1
daw (GeneID 33474) | DRSC00479 | -0.4
pigeon (GeneID 35200) | DRSC03565 | -0.3
Mvl (GeneID 42490) | DRSC16752 | -0.2
sphinx1 (GeneID 318005) | DRSC10993 | -0.4
Jheh1 (GeneID 251984) | DRSC06529 | -0.3
Snap25 (GeneID 3355084) | DRSC21228 | -0.2
Snap25 (GeneID 3355084) | DRSC21236 | 0.1
